Values from PubChem BioAssay AID652243 (Drosophila RNAi Screening Center, 2013)

- Assay: 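Knock-downs that decrease or increase androgen receptor reporter signal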 (primary screen)
- Cells: Drosophila S2R+ cells
- Reagents: long dsRNA against Drosophila genes
- Timing: 72 h (48 h, then 24 h hormone)
- Challenge: synthetic androgen R1881 at 10 nM for 24 h
- Read-out: 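Firefly light from an androgen-responsive reporter and Renilla control light per well, raw and unnormalised, for each of two replicates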
- Reading the numbers: firefly reporter light: higher = more light from androgen-responsive reporter; Renilla control light: higher = more constitutive control signal (cell number, transfection)
- Hit rule: 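Hit when the log firefly-to-Renilla ratio dropped or increased by a fixed fold versus the mean of GFP or LacZ controls across duplicate plates; lowering cut given as 1.5 and as 3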
- Meaning of the calls: active = hit: reporter lowered or raised; inactive = no hit
In all, the deposit lists about 24,000 reagents; this is a random part of those with a known target gene and a result. Over the whole deposit, 246 (1%) are marked active. 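Plates not normalised; calls are printed but the firefly/Renilla ratio behind them is not deposited; fold cut for lowering reported inconsistently.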 Raw values are not corrected between plates. Names joined by + are all predicted targets of the reagent. Not given: the amount of reagent.

no.	Target gene	DRSC id	firefly reporter light, replicate 1	firefly reporter light, replicate 2	Renilla control light, replicate 1	Renilla control light, replicate 2	Outcome
1	TwdlF	DRSC12225	24588	42037	3.11e5	2.70e5	inactive
2	TwdlF	DRSC27258	3.96e5	3.74e5	7.25e5	8.69e5	inactive
3	Mt2	DRSC03374	1.80e5	1.33e5	7.98e5	1.25e6	inactive
4	NUCB1	DRSC22137	5.92e5	6.76e5	1.86e6	1.67e6	inactive
5	NUCB1	DRSC29109	5.59e5	4.21e5	1.45e6	1.33e6	inactive
6	Kpc1	DRSC16107	73050	97674	1.01e6	1.03e6	inactive
7	CG6340	DRSC19987	4.59e5	2.16e5	2.25e6	2.36e6	inactive
8	CG6340	DRSC25288	9.18e5	1.18e6	9.11e5	9.77e5	inactive
9	CG18766	DRSC15936	71510	90245	6.80e5	7.10e5	inactive
10	CG18766	DRSC25739	1.27e6	6.61e5	1.36e6	8.86e5	inactive
11	CG15922	DRSC15128	2.06e5	2.55e5	3.53e6	3.52e6	inactive
12	odd	DRSC23024	5.84e5	8.16e5	9.87e5	1.62e6	inactive
13	Tfb1	DRSC07082	1.70e6	5.27e5	1.64e6	6.80e5	inactive
14	CG10035	DRSC14177	2.13e5	2.46e5	2.75e6	2.76e6	inactive
15	CG10035	DRSC28663	7.40e5	6.47e5	1.23e6	1.40e6	inactive
16	sncRNA:430e + His2A:CG33859 + His2A:CG33817 + 37 more	DRSC21264	1.74e5	1.49e5	1.53e5	1.18e5	inactive
17	CG9945	DRSC07347	1.63e5	1.01e5	1.07e6	1.03e6	inactive
18	CG9945	DRSC28885	4.09e5	3.68e5	9.71e5	7.45e5	inactive
19	Arpc5	DRSC00730	1.13e5	99114	6.88e5	6.30e5	inactive
20	CheA86a	DRSC38820	6.60e5	6.16e5	1.84e6	1.22e6	inactive
21	yellow-f	DRSC15348	69036	65604	1.48e6	1.52e6	inactive
22	yellow-f	DRSC27151	2.65e5	2.22e5	8.06e5	6.73e5	inactive
23	CG13126	DRSC02222	1.82e5	1.33e5	1.09e6	1.11e6	inactive
24	CG13126	DRSC27620	2.60e5	2.52e5	8.00e5	9.52e5	inactive
25	ScpX	DRSC03430	5.08e5	6.24e5	1.63e6	2.58e6	inactive
26	CG41020 (retired record)	DRSC38780	9.66e5	8.07e5	1.74e6	1.62e6	inactive
27	CG2577	DRSC19863	3.25e5	3.38e5	1.98e6	2.13e6	inactive
28	CG2577	DRSC23309	6.85e5	6.77e5	9.71e5	8.68e5	inactive
29	CG2577	DRSC26322	2.37e5	2.83e5	5.13e5	5.22e5	inactive
30	sncRNA:158	DRSC37905	6.72e5	7.04e5	1.46e6	1.36e6	inactive
31	CR31822	DRSC01510	1.43e5	1.59e5	5.20e5	5.16e5	inactive
32	hpRNA:CR33940	DRSC39118	4.95e5	4.73e5	1.84e6	1.78e6	inactive
33	ImpE1	DRSC11195	2.42e5	1.84e5	4.15e6	2.34e6	inactive
34	ImpE1	DRSC11196	1.84e5	1.62e5	2.74e6	2.25e6	inactive
35	ImpE1	DRSC24590	6.58e5	4.02e5	5.64e5	6.51e5	inactive
36	Nedd4	DRSC11234	1.51e5	1.81e5	1.38e6	2.34e6	inactive
37	Nedd4	DRSC21548	7.97e5	5.54e5	2.74e6	1.92e6	inactive
38	Nedd4	DRSC26365	4.53e5	3.42e5	5.47e5	5.14e5	inactive
39	Cph	DRSC25005	6.39e5	8.72e5	8.96e5	1.28e6	inactive
40	Cph	DRSC37513	8.66e5	8.93e5	2.13e6	1.46e6	inactive
41	wb	DRSC01375	16131	26693	1.84e5	1.87e5	inactive
42	wb	DRSC03634	1.81e5	2.07e5	2.28e6	2.93e6	inactive
43	wb	DRSC23003	1.07e6	1.29e6	1.20e6	1.44e6	inactive
44	wb	DRSC39164	1.01e6	9.25e5	2.60e6	2.02e6	inactive
45	CG42264	DRSC18074	1.78e5	2.62e5	2.32e6	2.81e6	inactive
46	CG42264	DRSC18075	2.44e5	2.91e5	2.21e6	2.01e6	inactive
47	CG42264	DRSC28051	4.70e5	4.11e5	1.39e6	1.28e6	inactive
48	Octbeta2R	DRSC12917	4.43e5	2.96e5	2.35e5	2.36e5	inactive
49	Octbeta2R	DRSC15350	1.38e5	1.22e5	2.05e6	1.85e6	inactive
50	Octbeta2R	DRSC16165	1.57e5	1.25e5	1.71e6	1.34e6	inactive
51	Octbeta2R	DRSC25380	5.37e5	5.59e5	5.88e5	4.87e5	inactive
52	Octbeta2R	DRSC26383	3.04e5	2.63e5	1.19e6	8.06e5	inactive
53	Pdfr	DRSC18614	3.56e5	5.10e5	3.85e6	4.21e6	inactive
54	CG10384	DRSC03933	1.24e5	1.67e5	3.16e5	4.95e5	inactive
55	CG10384	DRSC28924	3.43e5	4.59e5	1.05e6	1.81e6	inactive
56	CG17154	DRSC10253	1.82e5	1.67e5	2.43e6	1.96e6	inactive
57	CG14326	DRSC14805	77738	63608	1.91e6	1.35e6	inactive
58	CG14326	DRSC28069	4.95e5	2.86e5	1.24e6	1.03e6	inactive
59	Peritrophin-A	DRSC20570	1.18e5	86041	7.17e5	9.02e5	inactive
60	CG14892	DRSC15014	1.13e5	98954	1.96e6	1.98e6	inactive
61	CG15599	DRSC19668	1.88e5	1.84e5	2.91e6	3.10e6	inactive
62	CG42809	DRSC02532	2.55e5	3.02e5	1.49e6	1.85e6	inactive
63	Fa2h	DRSC06608	4.04e5	3.59e5	2.03e6	1.56e6	inactive
64	Fa2h	DRSC06609	2.00e5	2.08e5	1.68e6	2.10e6	inactive
65	Taf8	DRSC20363	2.64e5	2.56e5	2.25e6	2.11e6	inactive
66	CG5984	DRSC15930	2.08e5	2.61e5	1.94e6	3.18e6	inactive
67	CG33453	DRSC05782	1.20e5	1.51e5	3.45e5	4.44e5	inactive
68	Dhit	DRSC07411	6.46e5	6.17e5	1.63e6	1.73e6	inactive
69	Dhit	DRSC25629	6.18e5	5.61e5	8.60e5	7.96e5	inactive
70	ACXA	DRSC00844	1.95e5	3.10e5	1.77e6	1.57e6	inactive
71	ACXA	DRSC25338	1.12e6	9.58e5	1.37e6	1.15e6	inactive
72	Cip4	DRSC08469	4.79e5	4.42e5	1.23e6	1.01e6	inactive
73	Cip4	DRSC21740	2.71e5	2.88e5	1.43e6	1.94e6	inactive
74	nemy	DRSC05357	1.99e5	2.12e5	4.01e5	4.35e5	inactive
75	nemy	DRSC07262	9.34e5	1.04e6	1.07e6	1.31e6	inactive
76	nemy	DRSC26532	2.74e5	2.00e5	4.97e5	5.06e5	inactive

Part of the list above, reformatted:
Target gene,DRSC id,"firefly reporter light, replicate 1","firefly reporter light, replicate 2","Renilla control light, replicate 1","Renilla control light, replicate 2",Outcome
Cph,DRSC25005,6.39e5,8.72e5,8.96e5,1.28e6,inactive
Cph,DRSC37513,8.66e5,8.93e5,2.13e6,1.46e6,inactive
wb,DRSC01375,16131,26693,1.84e5,1.87e5,inactive
wb,DRSC03634,1.81e5,2.07e5,2.28e6,2.93e6,inactive
